Reference: paper PMC7819943, “Rice protein-binding microarrays: a tool to detect cis-acting elements near promoter regions in rice”
This is one part of the list.

target: T1, OsSMF1 (Oryza sativa, UniProt Q6ZLB0 1-436); assay: protein-binding microarray (RPBM); PBS, 2% BSA, 51.3 ng/ul salmon testes DNA, 50 uM zinc acetate, 200 nM TF, 25 C, 1 h; high values mean tight binding; details: protein: recombinant; tags: N-terminal polyhistidine and DsRed monomer fusion (pET32a); chain copies: 2; label: CyDye5-dUTP incorporated in the synthesized complementary strand; 3' TTTTT single-stranded linker to array surface; dsDNA, one strand shown
T1 sequence: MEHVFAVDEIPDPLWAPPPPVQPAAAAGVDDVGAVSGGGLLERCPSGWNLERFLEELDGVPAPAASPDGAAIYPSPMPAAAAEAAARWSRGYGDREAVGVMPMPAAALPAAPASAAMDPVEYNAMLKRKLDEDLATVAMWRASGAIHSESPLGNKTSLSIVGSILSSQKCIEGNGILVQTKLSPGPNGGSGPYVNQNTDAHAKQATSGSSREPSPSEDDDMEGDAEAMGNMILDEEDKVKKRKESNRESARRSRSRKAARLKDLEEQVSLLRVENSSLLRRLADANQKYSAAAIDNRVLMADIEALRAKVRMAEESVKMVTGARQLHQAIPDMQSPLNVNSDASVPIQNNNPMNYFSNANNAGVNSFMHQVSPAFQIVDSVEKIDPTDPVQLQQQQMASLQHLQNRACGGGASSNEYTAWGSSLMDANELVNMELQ
Method in brief: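 For the binding signal, per-feature fluorescence intensity was read in arbitrary units on an Axon 4000B scanner. Before scanning, a 2% BSA-blocked custom Agilent array made double-stranded with Cy5-dUTP was washed after 1 h at 25 °C with 200 nM protein and 50 µM zinc acetate. The proteins were Ni–NTA-purified transcription factors with N-terminal polyhistidine and DsRed fusions, expressed in E. coli BL21-CodonPlus.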

| Sequence | binding signal |
| --- | --- |
| GATCTACACGTTAGTCTACGCACCTATGCGTGCCTAAGCGCGGAGTCACCTAGTGCAG | 32400 fluorescence intensity (a.u.) |
| GACAACTTGATAGAGTGTGACACGCTCTTGTGAATAATCTCGGAGTCACCTAGTGCAG | 14100 fluorescence intensity (a.u.) |
| TCTACTGCAATTAGTTGATTCAGCTAGTAGCAAACATAATCGGAGTCACCTAGTGCAG | 54800 fluorescence intensity (a.u.) |
| ATAAGATTTGACACCTGATACTGATACTGTCCAGTTTATGCGGAGTCACCTAGTGCAG | 3330 fluorescence intensity (a.u.) |
| CGCCTTCGCCACCACCGCACATCATCGCTCGCTTCCCGGCCGGAGTCACCTAGTGCAG | 3160 fluorescence intensity (a.u.) |
| CTTTGTCTCGGCCCATAATGGCCAGCGTTTATGGCTCACTCGGAGTCACCTAGTGCAG | 10600 fluorescence intensity (a.u.) |
| CCATGGATCCACCTGTCCACGCAGCTGAGCTTAACCACCGCGGAGTCACCTAGTGCAG | 3490 fluorescence intensity (a.u.) |
| AATAACTTTTGTTCTGCATTCCCTCCTAGAGCATGTTCACCGGAGTCACCTAGTGCAG | 3510 fluorescence intensity (a.u.) |
| TCCACTCTCCACCAGTCAGCAGTGACGACAAGCAACTTGCCGGAGTCACCTAGTGCAG | 5280 fluorescence intensity (a.u.) |
| ACATACTTTCGTCTTCCTCCAGCTAACGGCCTCGCATTCTCGGAGTCACCTAGTGCAG | 3900 fluorescence intensity (a.u.) |
| ACAGTGCCACCAGAAAACGAGCAACTCATTGCCAATGGATCGGAGTCACCTAGTGCAG | 3190 fluorescence intensity (a.u.) |
| GGTCCACGTAAACAGAATGACCAGACTTATTTGATTCTCTCGGAGTCACCTAGTGCAG | 4640 fluorescence intensity (a.u.) |
| TGACAGACATCACACGCGGACGTTCAATTTATCCCAGCATCGGAGTCACCTAGTGCAG | 3310 fluorescence intensity (a.u.) |
| CCGCGCGCGCCACGCGGCAGCGGAGCAGGTGTAGTTCTTGCGGAGTCACCTAGTGCAG | 5890 fluorescence intensity (a.u.) |
| GGAAGGTGAGGGGTGATGGTAGCACGTGCAAGACGGTAGTCGGAGTCACCTAGTGCAG | 3720 fluorescence intensity (a.u.) |
| TTCTGCCGTCGCGCGGATGGCGTCACGTCGGCGGCGAAGACGGAGTCACCTAGTGCAG | 3670 fluorescence intensity (a.u.) |
| ACCCCTTGATGGCCCATAAAATATGGGCTCCACGTTGCATCGGAGTCACCTAGTGCAG | 7420 fluorescence intensity (a.u.) |
| GCACTAGCAACCAAATTGGATGCCGCATGGCGCCACGTTACGGAGTCACCTAGTGCAG | 4880 fluorescence intensity (a.u.) |
| GTCACTGTGGCATTGCCACGTCAGCGAATCGAGTGGGTTACGGAGTCACCTAGTGCAG | 15300 fluorescence intensity (a.u.) |
| TACGTGAAACTGACGTAATATTGAGCTGGCAGAAGTAGCACGGAGTCACCTAGTGCAG | 6360 fluorescence intensity (a.u.) |
| TTACCTAAATAGCCATATTTGCAATGTCACCAATTCACCCCGGAGTCACCTAGTGCAG | 4840 fluorescence intensity (a.u.) |

A second format for part of the listing above.
Sequence | binding signal
AATAACTTTTGTTCTGCATTCCCTCCTAGAGCATGTTCACCGGAGTCACCTAGTGCAG | 3510 fluorescence intensity (a.u.)
TCCACTCTCCACCAGTCAGCAGTGACGACAAGCAACTTGCCGGAGTCACCTAGTGCAG | 5280 fluorescence intensity (a.u.)
ACATACTTTCGTCTTCCTCCAGCTAACGGCCTCGCATTCTCGGAGTCACCTAGTGCAG | 3900 fluorescence intensity (a.u.)
ACAGTGCCACCAGAAAACGAGCAACTCATTGCCAATGGATCGGAGTCACCTAGTGCAG | 3190 fluorescence intensity (a.u.)

Next records follow:

| Sequence | binding signal |
| --- | --- |
| TCGTCGCGTTGGATTTGACGAGCTCGTCACCACCGGCTGCCGGAGTCACCTAGTGCAG | 3270 fluorescence intensity (a.u.) |
| ATATCAACCATGTCGTTCGTCCATCTTGTTCTGACCTGTGCGGAGTCACCTAGTGCAG | 3780 fluorescence intensity (a.u.) |
| ACCACCACCTCGGCATCTCCTCGTCCTCGAGCCCAATACTCGGAGTCACCTAGTGCAG | 3660 fluorescence intensity (a.u.) |
| ATTATATCATGCCATTTTAGAAGAATCCTCCGGTCCACGTCGGAGTCACCTAGTGCAG | 5570 fluorescence intensity (a.u.) |
| GGTCGGTCATGCTTAGCGGCGGCCGATCTGGTGCTAGTCTCGGAGTCACCTAGTGCAG | 3410 fluorescence intensity (a.u.) |
| AAAATGACAGCTGTACCGTGGGTGGTGTCACACCTTTTGCCGGAGTCACCTAGTGCAG | 5750 fluorescence intensity (a.u.) |
| TTCCTGTGCTTTTATATAGTCGGCCACGCGTCCCTTGAGCCGGAGTCACCTAGTGCAG | 3860 fluorescence intensity (a.u.) |
| TGGTTGTGTCCTGGTTTACCTAATTGAGTCAATCAATATGCGGAGTCACCTAGTGCAG | 3340 fluorescence intensity (a.u.) |
| GAGATTCGGCCCATGACGTCGTGGTCTGGAGCGACACGTACGGAGTCACCTAGTGCAG | 3200 fluorescence intensity (a.u.) |
| TTTTCTGCACATTTCCACCACGTCACAAAGAGCTAAGAGTCGGAGTCACCTAGTGCAG | 7550 fluorescence intensity (a.u.) |
| GCTCACGCTTCGCCGTCCGCGTCGCGTCGCGTTGCGTCGGCGGAGTCACCTAGTGCAG | 3420 fluorescence intensity (a.u.) |
| GAATTGAGCATGTCGGGAGAATCTGAACAATGGTGGTTGTCGGAGTCACCTAGTGCAG | 3870 fluorescence intensity (a.u.) |
| TAGTCAAAGGAGCCACGTAGATGTCACATTAGCTAAAACTCGGAGTCACCTAGTGCAG | 5400 fluorescence intensity (a.u.) |
| GGTTTTGGAGAGCGGTTTCACTGACGTGGCAGTGTTGACCCGGAGTCACCTAGTGCAG | 22900 fluorescence intensity (a.u.) |
| CGCCTCGTCCTCTCCTTATCTCCTGTCTTTCGTGGCATCTCGGAGTCACCTAGTGCAG | 4620 fluorescence intensity (a.u.) |
| CGGATGCCGTCCCTGCCGCCGGCCCACGTCGAGCTCATCCCGGAGTCACCTAGTGCAG | 3800 fluorescence intensity (a.u.) |
| CCGCCGCCACGCCGCTCCATGTCACTCCTACTCCCGCCACCGGAGTCACCTAGTGCAG | 7630 fluorescence intensity (a.u.) |
| GCCGACGCGCGCCGAGCTCATGGCTGCTACGTCCCCGCACCGGAGTCACCTAGTGCAG | 3610 fluorescence intensity (a.u.) |
| TAGGATTTACAGATGCATGACACGCTCCACCATGGACAAACGGAGTCACCTAGTGCAG | 3430 fluorescence intensity (a.u.) |
| CACCCTTGACCATTAGTGATGACGATGGCTCCTGGCGGCCCGGAGTCACCTAGTGCAG | 6210 fluorescence intensity (a.u.) |
| TATTTTCTGGATTCAATTGCCACGTAAGCGCCACATCATTCGGAGTCACCTAGTGCAG | 16000 fluorescence intensity (a.u.) |
